Measurements taken from the supplement of paper PMC3334620.
Over roughly 33,000 sequences, “E-score (-0.5 to 0.5)” has its median near -0.0014; the highest 2% begin near 0.25. The list shows a part of the results.

What follows are sequences tested against T1, Cad1 (UniProt P24813) (assay: PBM E-score (8-mer binding enrichment) (E-score (-0.5 to 0.5)); higher = stronger / more preferred TF binding). Conditions: protein concentration: 100 nM; construct: GST-full length.
T1 sequence: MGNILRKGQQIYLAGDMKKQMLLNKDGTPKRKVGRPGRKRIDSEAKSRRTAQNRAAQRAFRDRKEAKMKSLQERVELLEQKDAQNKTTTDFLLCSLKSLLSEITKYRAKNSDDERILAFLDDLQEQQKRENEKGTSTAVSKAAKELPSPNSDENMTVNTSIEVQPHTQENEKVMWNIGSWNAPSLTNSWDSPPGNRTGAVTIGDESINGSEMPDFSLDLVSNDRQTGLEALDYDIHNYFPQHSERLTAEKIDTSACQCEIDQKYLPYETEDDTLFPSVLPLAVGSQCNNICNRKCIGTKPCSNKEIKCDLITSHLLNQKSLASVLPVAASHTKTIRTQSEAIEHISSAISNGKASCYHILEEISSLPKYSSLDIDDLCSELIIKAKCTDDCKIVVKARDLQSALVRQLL
Procedure, shortened: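 Universal all-10-mer Agilent arrays, double-stranded by primer extension on fresh or once-stripped slides, were probed with about 100-200 nM GST-tagged yeast transcription factors made by PURExpress. Fluorescent anti-GST detected bound protein, and masliner normalised the scans. E-scores from the Universal PBM Analysis Suite were given to each ungapped eight-base word pooled with its reverse complement.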

Sequence	PBM E-score
GTTATTCA	0.251
CAAAATAC	0.115
CCAATTGA	0.0388
GCCCTCCC	-0.19
AGCGATAT	0.186
AACCCATC	-0.0566
CCCGTAAG	-0.11
ACCATTTC	0.136
GTAGTGTA	0.00401
CCTCTTTA	-0.0933
ATGGACAT	0.095
ATTATTGG	0.137
GCTAAAGC	-0.0728
CCTAGATC	-0.142
GCGAGCCA	-0.0639
CAGATCGG	-0.0566
CGTACAGC	-0.105
ACTCTGCA	0.0197
CTACAAAG	0.014
CATGTCCA	-0.0586
CTACCCAA	0.116
GTCGCGCA	0.069
CATTCAGC	0.025
AAGGGCAA	0.0155
ATACCCCG	-0.024

Sequence	PBM E-score
AGTGACAG	0.125
GATCAGAA	-0.00776
ACAGCGTA	-0.0185
GAAGGACA	0.0876
ACTCTACG	-0.153
AGTTTCTC	-0.0704
AAATGTAA	0.198
GGCCTGAA	-0.154
GGAAACCA	-0.134
ACTTGTCG	-0.117
CAATCAAC	0.228
CCGCTTGA	-0.129
ACCCGACC	-0.0137
GATCGACC	0.144
TAGGGCAA	-0.0815
CAGTCATA	-0.182
ATAATGTA	0.0394
CAGTGTTA	0.217
AACAGGCG	-0.0911
GCGTGGCA	-0.0481
CATGGACA	-0.099
CAGCTATG	-0.0983
ATGTTTTC	0.268
ATCAAATA	0.0718
GATGTGCA	-0.0123

Sequence	PBM E-score
ATGGTTGC	-0.135
ATGACGTA	0.0816
CAAGAACG	0.04
CACCCAGA	0.0357
CCTTGTTC	-0.0936
CATTGGCG	-0.126
ATAGTGAC	0.0959
ATCCTAAT	0.119
ATCATCTA	0.0234
ACCCAGCA	-0.197
ATTCTAGG	0.0386
AGGAACAG	-0.146
CTACAGAC	-0.177
GCAGCGAA	0.0425
AGGGACGG	-0.347
GGAGACAC	0.00254
CACTATAC	0.136
AATGTGTA	-0.00139
TATCGCAA	0.22
CAGAAGCC	-0.093
GAGTGAAC	-0.0404
CGCCGCGC	0.00596
CGCTACAC	-0.136
ACTTAACA	0.0611
ACAAAGCA	0.142

Sequence	PBM E-score
AGCTCACG	-0.0493
ATCGTAAT	0.202
CCATTCAA	0.0769
AGCTAATG	0.00261
CGAGACAA	-0.0822
ATACCTGC	-0.104
GCAGCGCA	-0.0325
CTTTATCA	0.0755
CAAACAAG	0.0295
GCATCTCA	-0.147
AAACGCCC	-0.0692
ATGCATCA	0.308
CACAACTC	0.025
ATACAAGG	-0.00434
AGCCAGCG	-0.102
CGGAGTGA	-0.0795
ACTCTCCT	-0.214
CAAAGGGG	-0.147
AGATTCAG	-0.0525
CCTAGGCC	-0.215
GCCGACGC	0.0286
AATGTCAG	0.0422
CAAAGATC	0.0193
ACTCTCTA	-0.108
GACGACAC	0.056

Sequence	PBM E-score
CAGATGAA	0.049
AACAGCCG	-0.169
ACCGGCAA	0.0725
AGTTTACC	-0.0644
ACAGCATA	0.151
ACTGTGAA	0.0448
CAAGGCGA	-0.145
CACTTGCA	0.108
GGTGAGAA	-0.0815
ACTCGATC	0.0397
CAGTTACG	-0.142
TCCAGAAA	-0.125
ATGCTATC	0.00232
CTAAGTGA	0.146
CTCCGGAG	-0.105
TTACATAA	0.438
CACCCTTC	-0.0857
TCCGCGGA	0.311
CAACAAAA	0.0393
ACATTGAG	-0.151
GACTTAGA	-0.122
CCCGTAAC	-0.0496
TGAGGCAA	0.0278
AGGAAACG	0.0331
ACGGTCAG	-0.157

Sequence	PBM E-score
ACTCTATG	-0.217
GCATACGC	-0.0165
AGTCAAAT	0.103
ATGATAGG	0.0278
AGGGTCCA	-0.264
AGCAGTAA	0.029
AGGGGCGA	-0.253
TTATTCAA	0.252
GTGGTTTA	0.0435
CAGAGCGA	0.083
CCTCGCAA	-0.259
ACATCTAA	-0.0207
GCGCGCCA	0.206
AACCCTCG	-0.0276
CTCCCGCC	-0.163
AGCAGAGG	-0.0826
ACGTTCTC	0.0667
CGACCCAA	0.0259
GAATTGTC	-0.014
ATCTGAGG	0.0679
GGGGAACA	-0.216
CGCTTCAC	0.00567
AGAGTAGG	-0.0216
ACTCTTGC	0.0522
ATACCCGA	-0.0679

Sequence	PBM E-score
GTGGCCGA	-0.0995
AAACTGAG	-0.0916
AACGATCA	-0.0458
CAGTTAGC	-0.27
CACTCAGA	0.0813
GTGGATTA	0.14
AGCAGGAC	0.0392
CCCCTGAC	0.00332
AGTATTTC	0.14
GATTCTCC	0.0061
ATGACCGG	-0.187
TATGTGGA	0.146
ACTCGAGC	0.0433
TAGGAGAA	-0.242
AAATCGGT	-0.00957
AAACTCGT	0.172
CCCTTCAA	-0.201
ACAGGGGC	-0.0756
AAGACAGT	0.0547
AGTAGAAG	-0.194
CAGTGGTA	-0.0283
CCCCGAAC	-0.119
AGCTAGGA	-0.126
AACAGACT	0.0773
GCACCCAC	0.0949

Sequence	PBM E-score
AATCTGGG	-0.106
ATAAGCGG	0.0934
AAGGGGAA	-0.222
CCCGTACC	-0.113
ACTAGGAT	-0.0418
AGTTGCCA	0.0449
ACCATCCC	-0.0594
CTTCCCTA	-0.158
ACTCCAAA	-0.141
CTGGTAAC	0.0655
CCTGTCGA	-0.00186
CACAGGGG	-0.23
CACTGTGC	0.17
AATGACGG	-0.0377
AAAATGAG	0.0365
TGCGAACA	0.0917
GGGGAAGA	-0.245
ATCGCTAG	0.0309
AGCCGCTC	0.00238
ATATGCGG	0.0542
CTCCTCGC	-0.135
AGATCCCT	-0.312
AACTCTAG	-0.155
AGGTCGGC	-0.159
CAAGTACC	-0.138

Some of the entries so far, with bars between the fields:
Sequence | PBM E-score
CCCGTACC | -0.113
ACTAGGAT | -0.0418
ACCATCCC | -0.0594
ACTCCAAA | -0.141
CCTGTCGA | -0.00186
CACAGGGG | -0.23
ATATGCGG | 0.0542

Continuation.

Sequence	PBM E-score
AGCGCCAT	-0.118
ACGGAGTG	0.114
ACCCGTGA	-0.116
CACCTTCA	-0.0601
AGCCGCTG	-0.0754
AAGGAGGT	-0.0875
GGGACCCC	-0.259
ACCACACC	-0.169
CTGCTAAC	-0.0938
CAGAAACG	0.0935
GCGTCACC	-0.072
CTGAAATA	0.00755
AACCTTCC	-0.131
ATCGAAAA	0.0997
CGGGCGCA	0.045
GATGAAAC	-0.0377
AAAGTTTA	0.179
TAATTACA	0.265
AAACATGC	0.0769
AGTAACGC	-0.0372
ATTAGCTG	0.102
AAGGCCTG	-0.0264
AGCGAATG	-0.13
ACCATACG	-0.054
AGCGGGGC	-0.0957

Sequence	PBM E-score
GGTTTACA	-0.0383
ATCCAAAA	0.194
GCTTCAGA	-0.0942
CCATAAGA	-0.0777
GAACTAGC	-0.0799
CTCATGAG	0.175
CATTAAAG	0.145
CGCCGGCG	0.301
CGCTAGAC	-0.117
CTTAAAAC	0.108
AATCGGGT	0.19
ACAACACC	0.153
GAAGTACC	0.0529
GTCTCGCA	-0.0655
GAAATAGA	0.0442
GGCCCCCC	-0.399
CAGTCGTA	-0.162
GTTCGCAA	0.19
AATATCAG	0.18
ACTATAGT	0.293
CTGCGGGC	-0.0688
CTGCGGCC	-0.0204
ACATAGGC	-0.129
CTTCTACC	-0.142
CCGATGTA	-0.131

Part of the list above, as a markdown table.

| Sequence | PBM E-score |
| --- | --- |
| ACAGGGGC | -0.0756 |
| AAGACAGT | 0.0547 |
| AGTAGAAG | -0.194 |
| CAGTGGTA | -0.0283 |

The list goes on.

Sequence	PBM E-score
ATAGCCAC	0.0315
TATAGAAA	-0.0962
AAAGTACC	-0.0128
CCTCCGCG	-0.128
AGACCGTC	-0.153
AGTCAGTG	-0.0342
AGGAAACC	0.0272
ACACGGGG	-0.071
GACGGAAA	0.195
CTTGCCCA	-0.0602
CCGTAAAA	0.0221
GGGTAAAA	0.15
AAATTTCG	0.232
AGCAGCCT	-0.0994
CTCTTACC	0.112
TCGTCTCA	0.0202
GCATTCGA	0.14
CAGCAAAA	0.098
CCCCCGCG	-0.264
CTCCTCTA	-0.193
CACCAACG	0.055
AAAGCTAC	-0.187
CAGTAAAG	-0.124
GGACGACA	0.227
GGTAGTGA	-0.0646

Sequence	PBM E-score
CGCAGAAA	0.106
AACGTTTC	0.0428
ATACTACA	0.264
AACTTAAA	0.118
CACCAGCG	-0.116
ATTGGCCC	-0.285
CCGCGGAC	0.129
AACACTGT	0.0459
AATGAGAG	0.0346
GAAGAGTC	-0.168
CCCTGATA	-0.155
ACGAGGGC	-0.0358
GCCTCATA	-0.172
AGGGCGAG	-0.256
AGTAATCC	0.229
ATGTTAAA	0.192
CATTGCCC	-0.203
ACGGATGG	-0.0904
GACAGCAA	0.0762
ACTGGTCG	-0.195
CTGGACCC	-0.227
ACGATCTA	-0.226
ACTCAAGC	0.0552
GATCGCAC	0.0818
CGGTAAAG	0.103

Sequence	PBM E-score
GATGTAGC	-0.234
GGAAGTCC	-0.16
ATCAGACC	-0.184
AATATGCA	0.0568
ATCGCAAC	0.0206
AATGAGCT	0.0384
TCTCACAA	0.0473
AAAGGCTC	-0.274
ACCTCTTA	0.153
CAGTTGGA	-0.242
CGTCGATA	0.119
ATCAAAAC	0.00993
GACTATCA	-0.0632
CTGATTCA	0.155
ATTTATCC	0.172
TAAAATTA	0.297
AGAACCCG	-0.174
ATCTCTAA	-0.0315
CCTTACGA	0.00401
TCATAACA	0.182
ACAGATCA	-0.0188
GGCGTGGA	-0.128
GAAATTAA	0.295
CACTCTCA	-0.0491
CACATAGA	-0.0808

5 entries picked at random from the list so far:
Sequence	PBM E-score
TCATAACA	0.182
ACAGATCA	-0.0188
ATCAAAAC	0.00993
TCTCACAA	0.0473
CACTCTCA	-0.0491

Further records.

Sequence	PBM E-score
CACAGACC	0.0247
AATCTAGC	0.08
GCATCAGC	0.0599
TCCCAAAA	0.117
TAGCATCA	0.137
CTCCGTTC	0.059
AGCAACTC	-0.0101
CGTCTCGC	0.017
ACGGCCAA	0.0134
AATCTGAA	-0.0163
CAAGCAGG	-0.133
CTACCACC	-0.249
GTGACCCA	-0.0539
CGTGCACG	0.106
ATCCGCGG	0.219
CCACCACC	-0.089
AATTGAAT	0.108
CGACCACC	-0.0864
GATGTTTA	0.196
